{"source": "paper PMC9293670", "about": "(Acta Pharmaceutica Sinica. B, 2022)", "test_system": "hippocampus neurons", "assay": "HE staining of hippocampal CA3 region in UCCAO mice", "format": "in vivo, C57BL/6J mice", "conditions": "vs model group", "data": [{"compound": "COc1cc2c(cc1OC)C(=O)C(CC1CCN(Cc3ccccc3)CC1)C2", "note": "(stereo not shown) [donepezil]", "values": [{"measurement": "histological changes of hippocampus neurons (HE staining)", "result": "clearly reduced the shrunken or irregular neurons"}]}]}
